Results are given in words; binding and its absence hold for the method and conditions named.
Biological target: Lsr2 DNA binding domain (Lsr2BD), wild type (M. tuberculosis H37Rv) (UniProt P9WIP7)
Test: solution NMR

Lsr2 DNA binding domain (Lsr2BD), wild type (from UniProt P9WIP7 66-112) (domain or fragment)
binding: no binding (tested: 0.5mM)
